{"sequences": {"note": "Amino acid sequences for entries named in this document (tags omitted). A change or cut given only in a name is not applied to a line headed by its entry.", "UniProt P07225": "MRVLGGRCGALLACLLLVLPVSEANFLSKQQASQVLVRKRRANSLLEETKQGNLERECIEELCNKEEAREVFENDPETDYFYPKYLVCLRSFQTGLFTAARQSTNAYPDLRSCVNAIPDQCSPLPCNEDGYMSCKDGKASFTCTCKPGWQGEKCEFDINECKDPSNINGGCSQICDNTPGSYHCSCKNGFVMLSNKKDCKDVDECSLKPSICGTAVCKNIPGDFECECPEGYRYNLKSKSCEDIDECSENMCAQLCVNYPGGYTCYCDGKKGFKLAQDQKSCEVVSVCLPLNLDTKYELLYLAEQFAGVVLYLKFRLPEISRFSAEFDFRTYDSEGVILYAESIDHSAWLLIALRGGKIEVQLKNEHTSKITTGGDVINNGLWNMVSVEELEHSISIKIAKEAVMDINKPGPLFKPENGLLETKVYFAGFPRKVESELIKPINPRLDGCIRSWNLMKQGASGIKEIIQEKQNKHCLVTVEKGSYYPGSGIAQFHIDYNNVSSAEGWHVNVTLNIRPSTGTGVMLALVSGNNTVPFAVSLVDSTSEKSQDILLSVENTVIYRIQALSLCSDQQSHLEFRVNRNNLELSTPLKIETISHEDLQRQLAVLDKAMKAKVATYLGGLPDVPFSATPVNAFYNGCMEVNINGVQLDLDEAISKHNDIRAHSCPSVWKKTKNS", "UniProt P12259": "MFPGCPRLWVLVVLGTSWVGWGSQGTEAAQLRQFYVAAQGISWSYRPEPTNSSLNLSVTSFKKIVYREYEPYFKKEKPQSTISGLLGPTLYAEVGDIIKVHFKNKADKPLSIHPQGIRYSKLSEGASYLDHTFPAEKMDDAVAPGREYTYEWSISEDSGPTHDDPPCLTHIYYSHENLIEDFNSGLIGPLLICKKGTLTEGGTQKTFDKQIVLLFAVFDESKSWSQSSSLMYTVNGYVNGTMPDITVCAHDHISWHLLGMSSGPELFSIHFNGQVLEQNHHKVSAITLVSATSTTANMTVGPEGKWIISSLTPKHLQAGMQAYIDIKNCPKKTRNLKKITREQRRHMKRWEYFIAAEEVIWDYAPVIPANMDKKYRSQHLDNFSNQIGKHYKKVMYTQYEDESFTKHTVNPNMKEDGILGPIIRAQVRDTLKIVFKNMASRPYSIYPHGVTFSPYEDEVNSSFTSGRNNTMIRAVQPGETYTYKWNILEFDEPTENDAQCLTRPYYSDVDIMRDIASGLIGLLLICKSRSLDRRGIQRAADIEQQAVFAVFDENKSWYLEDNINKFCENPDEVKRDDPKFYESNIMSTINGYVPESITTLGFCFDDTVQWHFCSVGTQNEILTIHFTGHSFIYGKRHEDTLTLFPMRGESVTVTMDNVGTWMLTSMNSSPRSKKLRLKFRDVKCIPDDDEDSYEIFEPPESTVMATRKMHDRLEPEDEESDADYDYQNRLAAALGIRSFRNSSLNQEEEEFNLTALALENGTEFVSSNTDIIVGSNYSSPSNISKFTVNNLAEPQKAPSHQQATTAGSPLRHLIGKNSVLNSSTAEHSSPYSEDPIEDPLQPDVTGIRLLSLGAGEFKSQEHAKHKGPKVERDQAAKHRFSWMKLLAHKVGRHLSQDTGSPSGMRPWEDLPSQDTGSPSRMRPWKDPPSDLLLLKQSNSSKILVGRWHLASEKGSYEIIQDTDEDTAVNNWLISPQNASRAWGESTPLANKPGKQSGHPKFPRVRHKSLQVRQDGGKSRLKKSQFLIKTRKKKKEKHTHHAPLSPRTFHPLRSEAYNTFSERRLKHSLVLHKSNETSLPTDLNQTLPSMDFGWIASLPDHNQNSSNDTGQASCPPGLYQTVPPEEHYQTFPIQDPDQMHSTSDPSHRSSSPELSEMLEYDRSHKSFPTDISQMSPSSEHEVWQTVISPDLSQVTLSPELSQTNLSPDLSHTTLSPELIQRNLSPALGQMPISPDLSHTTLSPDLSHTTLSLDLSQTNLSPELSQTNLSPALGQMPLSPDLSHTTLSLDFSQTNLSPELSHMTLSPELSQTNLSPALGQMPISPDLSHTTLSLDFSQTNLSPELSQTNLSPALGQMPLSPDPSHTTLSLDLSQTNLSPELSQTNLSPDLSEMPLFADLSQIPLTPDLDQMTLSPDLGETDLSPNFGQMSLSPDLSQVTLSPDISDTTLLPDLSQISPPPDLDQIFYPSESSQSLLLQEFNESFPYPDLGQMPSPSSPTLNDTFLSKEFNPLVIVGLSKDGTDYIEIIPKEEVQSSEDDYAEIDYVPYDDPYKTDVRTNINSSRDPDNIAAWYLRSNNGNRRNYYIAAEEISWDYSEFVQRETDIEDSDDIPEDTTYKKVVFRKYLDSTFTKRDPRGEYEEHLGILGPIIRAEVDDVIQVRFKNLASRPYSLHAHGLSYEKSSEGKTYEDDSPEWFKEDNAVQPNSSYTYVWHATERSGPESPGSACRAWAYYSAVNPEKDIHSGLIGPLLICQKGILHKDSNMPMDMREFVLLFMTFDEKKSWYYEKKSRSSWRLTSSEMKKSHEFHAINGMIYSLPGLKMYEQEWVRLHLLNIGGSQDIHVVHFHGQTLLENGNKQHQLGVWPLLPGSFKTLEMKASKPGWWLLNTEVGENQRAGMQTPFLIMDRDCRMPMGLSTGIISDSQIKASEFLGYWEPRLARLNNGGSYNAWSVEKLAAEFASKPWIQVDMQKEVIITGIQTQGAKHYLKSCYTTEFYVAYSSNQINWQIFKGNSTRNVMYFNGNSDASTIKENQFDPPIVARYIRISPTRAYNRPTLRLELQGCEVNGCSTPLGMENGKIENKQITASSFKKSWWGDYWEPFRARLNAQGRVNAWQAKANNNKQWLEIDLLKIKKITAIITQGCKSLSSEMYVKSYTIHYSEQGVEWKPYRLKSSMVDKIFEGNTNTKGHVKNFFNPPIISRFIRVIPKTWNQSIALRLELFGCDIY"}, "source": "paper PMC6916587", "about": "“The roles of factor Va and protein S in formation of the activated protein C/protein S/factor Va inactivation complex” (Journal of Thrombosis and Haemostasis, 2019)", "key": {"protein S D95A": {"molecular_target": "protein S D95A (UniProt P07225)", "experiment": "flow cytometry on phospholipid-coated magnetic beads; phospholipid-coated magnetic beads (125 μg/mL) pre-incubated with 100 nmol/L protein S and/or 0-75 nmol/L FVa at room temperature for 25 min, then 0-75 nmol/L APC-Fluor; MFI of the beads read 1 min (0-5 min) after APC; apparent; both purified"}, "protein S E36A": {"molecular_target": "protein S E36A (UniProt P07225)", "experiment": "flow cytometry on phospholipid-coated magnetic beads; phospholipid-coated magnetic beads (125 μg/mL) pre-incubated with 100 nmol/L protein S and/or 0-75 nmol/L FVa at room temperature for 25 min, then 0-75 nmol/L APC-Fluor; MFI of the beads read 1 min (0-5 min) after APC; apparent; both purified"}}, "note": "Results are given in words; binding and its absence hold for the method and conditions named.", "data": [{"substance": "activated factor V (FVa), wild type (from UniProt P12259 29-737; P12259 1574-2224)", "values": [{"measurement": "binding", "setting": "protein S D95A", "value": "no binding (tested: 25 nmol/L FVa, 100 nmol/L protein S D95A)"}, {"measurement": "binding", "setting": "protein S E36A", "value": "no binding (tested: 25 nmol/L FVa, 100 nmol/L protein S E36A)"}]}]}
